Experimental data: PubChem BioAssay AID602196 (INSERM, 2012)
Shown is a random part of about 23,000 reagents. In the full data, 455 (2%) were called active. 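Active includes both protection and sensitisation; some change values fall well beyond the stated -50 to +50 range.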 Not given: the amount of reagent.

- Purpose: 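Modifiers of cisplatin sensitivity in A549 cells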
- System: human A549 lung cancer cells
- Knock-down reagent: siRNA pair against human genes
- Duration: 48 h transfection before cisplatin; time from cisplatin to read-out not stated
- Treatment: cisplatin at a dose killing half of control-siRNA cells; exact dose and duration not given
- Measured: 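Shift in cisplatin death relative to control siRNA, from -50 (all cells die) to +50 (no cells die); siRNAs harmful on their own scored 0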
- Scale: two-siRNA summed score (-2 to +2): higher = both siRNAs protect from cisplatin killing; -2 means both sensitise; mean protection from cisplatin (shift in death) and protection from cisplatin (shift in death), siRNA C and protection from cisplatin (shift in death), siRNA D: higher = protection from cisplatin killing
- Hit rule: 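siRNAs harmful alone (LDH or WST-1) get 0; others get +1 for less and -1 for more cisplatin killing; genes are active when the two siRNAs give the same sign, summing to ±2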
- Calls: active = both siRNAs shift cisplatin killing the same way; inactive = no consistent shift, or siRNA harmful alone

| gene knocked down | PubChem SID | two-siRNA summed score (-2 to +2) | mean protection from cisplatin (shift in death) (%) | protection from cisplatin (shift in death), siRNA C (%) | protection from cisplatin (shift in death), siRNA D (%) | Call |
| --- | --- | --- | --- | --- | --- | --- |
| TP53INP2 (GeneID 58476) | SID131508418 | 0 | 1 | 10.7 | -8.6 | inactive |
| PGM5 (GeneID 5239) | SID131518891 | 0 | 39.5 | -13.5 | 92.5 | inactive |
| DDX11 (GeneID 1663) | SID131516324 | 0 | 10.7 | 12.2 | 9.2 | inactive |
| ERP29 (GeneID 10961) | SID131517766 | 0 | 14.7 | 32.5 | -3.1 | inactive |
| SNX19 (GeneID 399979) | SID131512110 | 0 | 5.1 | -0.5 | 10.7 | inactive |
| INHBC (GeneID 3626) | SID131503721 | 0 | -8.2 | -8.7 | -7.7 | inactive |
| PARD3 (GeneID 56288) | SID131522442 | 1 | 18.6 | 23.7 | 13.6 | inactive |
| DNM1DN4-1 (GeneID 390560) | SID131522860 | 1 | 27.5 | 27.6 | 27.4 | inactive |
| GRN (GeneID 2896) | SID131511580 | 0 | 4.5 | 5.1 | 3.9 | inactive |
| CHMP4C (GeneID 92421) | SID131505017 | 0 | -4 | -3.3 | -4.6 | inactive |
| LRRC18 (GeneID 474354) | SID131520211 | 1 | 9.1 | 15.1 | 3.1 | inactive |
| TMEM61 (GeneID 199964) | SID131505360 | 0 | -3.3 | -5 | -1.6 | inactive |
| KRTAP4-7 (GeneID 100132476) | SID131513592 | 0 | 6.8 | 4.7 | 8.8 | inactive |
| VCAN (GeneID 1462) | SID131502252 | -1 | -4 | 2.2 | -10.2 | inactive |
| VPS51 (GeneID 738) | SID131512133 | 0 | 5.1 | 9.4 | 0.9 | inactive |
| CACNB3 (GeneID 784) | SID131521890 | 1 | 15.3 | 22.3 | 8.3 | inactive |
| TULP1 (GeneID 7287) | SID131510580 | 0 | 3.4 | 1.6 | 5.2 | inactive |
| BID (GeneID 637) | SID131519482 | 1 | 5.8 | 14.4 | -2.8 | inactive |
| LOC440890 | SID131516488 | 0 | 10.9 | 11.4 | 10.5 | inactive |
| ZCWPW2 (GeneID 152098) | SID131520534 | 1 | 10.2 | 16 | 4.5 | inactive |
| GNAQ (GeneID 2776) | SID131506645 | 0 | -1.2 | 5.5 | -7.9 | inactive |
| CCT7 (GeneID 10574) | SID131515746 | 0 | 9.6 | 9.7 | 9.5 | inactive |
| VIT (GeneID 5212) | SID131512000 | 0 | 5 | 0.7 | 9.3 | inactive |
| COPE (GeneID 11316) | SID131507615 | 0 | 0.1 | -8.2 | 8.3 | inactive |
| UGT2B7 (GeneID 7364) | SID131511596 | 0 | 4.5 | -3.4 | 12.4 | inactive |
| IMPDH2 (GeneID 3615) | SID131500499 | -1 | -24.5 | -20.1 | -28.8 | inactive |
| IFT172 (GeneID 26160) | SID131509614 | 0 | 2.3 | 8.8 | -4.2 | inactive |
| LOC343717 | SID131503991 | 0 | -6.9 | -4.5 | -9.3 | inactive |
| EAPP (GeneID 55837) | SID131512225 | 0 | 5.2 | 4.2 | 6.3 | inactive |
| NMRK2 (GeneID 27231) | SID131522690 | 1 | 21.8 | 22.3 | 21.4 | inactive |
| LOC440750 | SID131515483 | 0 | 9.2 | 8 | 10.5 | inactive |
| FOXJ2 (GeneID 55810) | SID131519403 | 1 | 5.3 | 16 | -5.4 | inactive |
| DPH7 (GeneID 92715) | SID131506049 | 0 | -2.1 | 6.7 | -10.9 | inactive |
| SUMF2 (GeneID 25870) | SID131521506 | 1 | 13.8 | 5.8 | 21.8 | inactive |
| KIDINS220 (GeneID 57498) | SID131502182 | -1 | -4.6 | 4.8 | -13.9 | inactive |
| PCDHGA5 (GeneID 56110) | SID131513451 | 0 | 6.6 | 5.2 | 8 | inactive |
| DCX (GeneID 1641) | SID131505385 | 0 | -3.2 | 1.8 | -8.2 | inactive |
| MMUT (GeneID 4594) | SID131506462 | 0 | -1.5 | -3.7 | 0.7 | inactive |
| LOC130063 | SID131515270 | 0 | 8.9 | 14.7 | 3.1 | inactive |
| EXOSC7 (GeneID 23016) | SID131502025 | -1 | -5.8 | 2.2 | -13.9 | inactive |
| OR10W1 (GeneID 81341) | SID131515858 | 0 | 9.8 | 15.1 | 4.5 | inactive |
| LOC389311 | SID131521813 | 1 | 15 | 22.7 | 7.2 | inactive |
| BCLAF3 (GeneID 256643) | SID131508046 | 0 | 0.6 | -1.4 | 2.5 | inactive |
| CCAR1 (GeneID 55749) | SID131509117 | 0 | 1.8 | -2.9 | 6.5 | inactive |
| GCHFR (GeneID 2644) | SID131501789 | -1 | -7.4 | 2.1 | -16.8 | inactive |
| OPTN (GeneID 10133) | SID131504450 | 0 | -5.4 | -0.1 | -10.6 | inactive |
| TXNDC11 (GeneID 51061) | SID131506681 | 0 | -1.1 | -2.2 | -0.1 | inactive |
| PIGR (GeneID 5284) | SID131500670 | -1 | -18 | -28.4 | -7.6 | inactive |
| NPEPL1 (GeneID 79716) | SID131506765 | 0 | -1 | -4.2 | 2.1 | inactive |
| ADAMTS9 (GeneID 56999) | SID131517795 | 0 | 14.8 | 1.9 | 27.8 | inactive |
| RRAS2 (GeneID 22800) | SID131500468 | -1 | -27.1 | -27.2 | -26.9 | inactive |
| RFC2 (GeneID 5982) | SID131509702 | 0 | 2.4 | 10.7 | -5.9 | inactive |
| A4GALT (GeneID 53947) | SID131513200 | 0 | 6.3 | 30.1 | -17.5 | inactive |
| ZNF778 (GeneID 197320) | SID131522041 | 1 | 16 | 6.1 | 25.8 | inactive |
| LOC401014 | SID131514703 | 0 | 8.1 | 12.1 | 4.2 | inactive |
| CHSY3 (GeneID 337876) | SID131506903 | 0 | -0.8 | 3.7 | -5.4 | inactive |
| TENT5A (GeneID 55603) | SID131507603 | 0 | 0.1 | 14 | -13.9 | inactive |
